Reference: paper PMC12669629
Results are given in words; binding and its absence hold for the method and conditions named. In cells and extracts the contact can be indirect. Some entries that bind do so weakly or less than the wild type.

Sequences of proteins named here, by UniProt entry; tags and fusion partners are left off. A change or cut given only in a name is not applied to a line headed by its entry. Residues count along the entry.
UniProt O95359: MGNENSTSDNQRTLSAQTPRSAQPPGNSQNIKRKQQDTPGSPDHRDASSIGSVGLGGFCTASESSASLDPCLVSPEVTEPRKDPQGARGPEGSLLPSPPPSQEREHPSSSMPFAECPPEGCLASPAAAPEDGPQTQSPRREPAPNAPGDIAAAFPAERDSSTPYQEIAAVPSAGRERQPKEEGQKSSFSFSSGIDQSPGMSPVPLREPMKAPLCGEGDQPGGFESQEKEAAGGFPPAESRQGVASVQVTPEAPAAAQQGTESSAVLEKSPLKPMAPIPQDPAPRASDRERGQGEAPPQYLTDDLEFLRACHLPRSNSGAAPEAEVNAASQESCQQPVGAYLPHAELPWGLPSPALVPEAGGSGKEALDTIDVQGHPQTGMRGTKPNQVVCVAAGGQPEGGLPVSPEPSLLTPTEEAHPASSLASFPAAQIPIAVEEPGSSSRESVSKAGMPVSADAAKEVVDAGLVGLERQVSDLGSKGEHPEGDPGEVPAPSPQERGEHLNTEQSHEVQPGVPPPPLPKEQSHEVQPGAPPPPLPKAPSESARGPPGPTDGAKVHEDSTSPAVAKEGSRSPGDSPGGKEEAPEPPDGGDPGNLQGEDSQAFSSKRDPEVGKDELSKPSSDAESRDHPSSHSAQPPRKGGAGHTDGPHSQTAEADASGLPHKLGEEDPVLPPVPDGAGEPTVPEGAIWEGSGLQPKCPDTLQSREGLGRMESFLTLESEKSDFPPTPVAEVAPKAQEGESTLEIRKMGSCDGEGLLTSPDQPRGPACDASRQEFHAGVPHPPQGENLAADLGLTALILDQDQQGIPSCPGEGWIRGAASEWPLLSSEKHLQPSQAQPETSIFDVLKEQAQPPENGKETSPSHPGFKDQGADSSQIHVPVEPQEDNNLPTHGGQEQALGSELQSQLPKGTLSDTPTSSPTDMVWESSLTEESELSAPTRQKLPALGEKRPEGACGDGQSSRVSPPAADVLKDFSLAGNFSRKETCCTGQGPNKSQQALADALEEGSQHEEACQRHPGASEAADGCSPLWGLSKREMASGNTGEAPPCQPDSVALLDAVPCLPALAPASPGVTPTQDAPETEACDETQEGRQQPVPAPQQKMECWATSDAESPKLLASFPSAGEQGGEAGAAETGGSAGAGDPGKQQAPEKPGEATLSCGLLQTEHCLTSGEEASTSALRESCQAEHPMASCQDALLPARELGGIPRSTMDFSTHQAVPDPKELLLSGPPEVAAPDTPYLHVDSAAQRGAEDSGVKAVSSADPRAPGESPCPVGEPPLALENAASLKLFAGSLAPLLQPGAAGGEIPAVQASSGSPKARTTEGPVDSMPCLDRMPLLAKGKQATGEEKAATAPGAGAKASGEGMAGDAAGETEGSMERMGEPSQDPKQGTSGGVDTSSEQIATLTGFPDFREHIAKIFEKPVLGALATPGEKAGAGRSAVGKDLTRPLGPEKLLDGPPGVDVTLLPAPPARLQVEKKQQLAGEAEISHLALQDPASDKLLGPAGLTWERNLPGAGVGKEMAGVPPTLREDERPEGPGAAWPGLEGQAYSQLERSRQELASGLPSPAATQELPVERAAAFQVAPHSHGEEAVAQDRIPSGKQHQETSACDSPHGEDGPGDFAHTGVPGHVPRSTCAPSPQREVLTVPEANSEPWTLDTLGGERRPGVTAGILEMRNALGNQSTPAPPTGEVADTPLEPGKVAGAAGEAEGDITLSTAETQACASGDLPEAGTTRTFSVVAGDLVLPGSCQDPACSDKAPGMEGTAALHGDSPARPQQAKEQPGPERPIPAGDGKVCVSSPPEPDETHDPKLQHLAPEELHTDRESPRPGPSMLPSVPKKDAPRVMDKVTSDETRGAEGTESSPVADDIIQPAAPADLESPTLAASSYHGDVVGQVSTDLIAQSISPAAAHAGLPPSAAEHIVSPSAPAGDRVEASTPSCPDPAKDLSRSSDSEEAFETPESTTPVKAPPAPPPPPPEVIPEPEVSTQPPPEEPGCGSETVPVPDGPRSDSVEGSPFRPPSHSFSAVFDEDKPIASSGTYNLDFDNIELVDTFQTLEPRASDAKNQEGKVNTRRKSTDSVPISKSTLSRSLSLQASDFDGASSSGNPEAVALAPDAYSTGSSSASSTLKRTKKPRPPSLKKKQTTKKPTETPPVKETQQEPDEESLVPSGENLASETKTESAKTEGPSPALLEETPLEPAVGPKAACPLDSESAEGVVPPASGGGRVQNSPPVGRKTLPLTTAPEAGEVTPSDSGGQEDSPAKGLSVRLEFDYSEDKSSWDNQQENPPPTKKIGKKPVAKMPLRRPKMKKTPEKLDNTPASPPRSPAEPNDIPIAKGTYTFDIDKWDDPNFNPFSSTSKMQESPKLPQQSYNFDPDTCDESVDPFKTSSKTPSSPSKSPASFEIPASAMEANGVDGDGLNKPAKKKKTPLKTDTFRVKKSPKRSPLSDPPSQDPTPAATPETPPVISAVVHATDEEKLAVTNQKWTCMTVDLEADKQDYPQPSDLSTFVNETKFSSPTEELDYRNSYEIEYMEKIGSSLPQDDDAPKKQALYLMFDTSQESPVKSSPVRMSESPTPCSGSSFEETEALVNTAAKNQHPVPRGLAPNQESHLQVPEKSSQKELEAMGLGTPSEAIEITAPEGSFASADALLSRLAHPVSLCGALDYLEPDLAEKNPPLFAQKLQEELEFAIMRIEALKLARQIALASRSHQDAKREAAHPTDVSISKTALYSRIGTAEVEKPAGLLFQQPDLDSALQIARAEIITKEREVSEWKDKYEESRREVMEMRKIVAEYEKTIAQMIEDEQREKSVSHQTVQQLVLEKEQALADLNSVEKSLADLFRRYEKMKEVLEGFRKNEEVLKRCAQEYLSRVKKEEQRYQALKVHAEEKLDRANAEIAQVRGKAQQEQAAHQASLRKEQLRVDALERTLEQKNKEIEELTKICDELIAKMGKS
UniProt P29317, residues 24-976: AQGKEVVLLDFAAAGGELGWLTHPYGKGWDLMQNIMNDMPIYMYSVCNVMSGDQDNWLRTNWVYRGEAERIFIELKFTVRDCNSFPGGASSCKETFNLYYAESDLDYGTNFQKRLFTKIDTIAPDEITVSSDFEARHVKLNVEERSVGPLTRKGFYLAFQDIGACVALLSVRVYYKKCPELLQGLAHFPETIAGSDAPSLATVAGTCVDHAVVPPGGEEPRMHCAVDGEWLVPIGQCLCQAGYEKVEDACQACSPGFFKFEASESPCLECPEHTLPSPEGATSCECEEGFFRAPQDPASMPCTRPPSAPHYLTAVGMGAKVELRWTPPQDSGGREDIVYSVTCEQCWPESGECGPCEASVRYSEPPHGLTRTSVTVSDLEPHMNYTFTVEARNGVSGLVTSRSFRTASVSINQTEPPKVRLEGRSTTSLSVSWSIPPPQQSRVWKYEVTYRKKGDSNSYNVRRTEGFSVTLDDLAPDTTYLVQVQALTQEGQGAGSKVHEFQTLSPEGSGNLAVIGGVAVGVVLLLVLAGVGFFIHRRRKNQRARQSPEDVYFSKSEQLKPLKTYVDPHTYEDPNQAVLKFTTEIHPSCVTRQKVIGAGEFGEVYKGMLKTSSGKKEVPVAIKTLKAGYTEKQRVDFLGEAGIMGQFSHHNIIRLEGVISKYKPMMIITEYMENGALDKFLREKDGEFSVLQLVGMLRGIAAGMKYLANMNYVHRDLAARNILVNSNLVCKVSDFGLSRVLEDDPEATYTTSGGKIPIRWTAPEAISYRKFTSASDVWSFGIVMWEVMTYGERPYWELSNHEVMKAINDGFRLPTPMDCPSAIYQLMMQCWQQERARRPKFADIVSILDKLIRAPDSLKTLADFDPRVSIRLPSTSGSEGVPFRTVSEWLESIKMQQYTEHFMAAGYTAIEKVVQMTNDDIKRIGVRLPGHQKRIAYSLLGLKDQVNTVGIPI

What was measured:
[1] = molecular target: T1, N-terminal PH (PH1) domain (aa 7-112) of PLEKHA1 (human) (UniProt Q9HB21); test: co-IP; co-IP of the PH1 domain of PLEKHA1 and EphA2 (Fig. S4A); cells and tags not shown
T1 sequence: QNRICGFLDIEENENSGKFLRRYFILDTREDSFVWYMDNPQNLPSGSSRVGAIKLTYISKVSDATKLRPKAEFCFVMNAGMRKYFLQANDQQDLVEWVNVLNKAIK

[2] = molecular target: Flag-tagged PLEKHA1 (pleckstrin homology domain containing family A member 1) (human) (UniProt Q9HB21); test: co-IP; KYSE30 cell lysates, immunoprecipitation with anti-Flag, immunoblot for endogenous EphA2; IP lysis buffer 50 mM Tris-HCl pH 7.4, 150 mM NaCl, 0.6% NP-40, 5 mM EDTA, overnight at 4 °C
[3] = molecular target: Flag-tagged TACC2 (transforming acidic coiled-coil protein 2) (human) (UniProt O95359); test: as above

| binding [1] | binding [2] | binding [3] | Substance |
| --- | --- | --- | --- |
| binds | – | – | EphA2 as used in the co-IP with the PH1 domain (Fig. S4A) (from UniProt P29317 24-976) (receptor) |
| – | no binding | no binding | endogenous EphA2 (from UniProt P29317 24-976) (receptor) |
